The values below come from publication doi:10.1101/840157.

The chains behind the UniProt entries cited, without tags or fusion partners.
UniProt P38903: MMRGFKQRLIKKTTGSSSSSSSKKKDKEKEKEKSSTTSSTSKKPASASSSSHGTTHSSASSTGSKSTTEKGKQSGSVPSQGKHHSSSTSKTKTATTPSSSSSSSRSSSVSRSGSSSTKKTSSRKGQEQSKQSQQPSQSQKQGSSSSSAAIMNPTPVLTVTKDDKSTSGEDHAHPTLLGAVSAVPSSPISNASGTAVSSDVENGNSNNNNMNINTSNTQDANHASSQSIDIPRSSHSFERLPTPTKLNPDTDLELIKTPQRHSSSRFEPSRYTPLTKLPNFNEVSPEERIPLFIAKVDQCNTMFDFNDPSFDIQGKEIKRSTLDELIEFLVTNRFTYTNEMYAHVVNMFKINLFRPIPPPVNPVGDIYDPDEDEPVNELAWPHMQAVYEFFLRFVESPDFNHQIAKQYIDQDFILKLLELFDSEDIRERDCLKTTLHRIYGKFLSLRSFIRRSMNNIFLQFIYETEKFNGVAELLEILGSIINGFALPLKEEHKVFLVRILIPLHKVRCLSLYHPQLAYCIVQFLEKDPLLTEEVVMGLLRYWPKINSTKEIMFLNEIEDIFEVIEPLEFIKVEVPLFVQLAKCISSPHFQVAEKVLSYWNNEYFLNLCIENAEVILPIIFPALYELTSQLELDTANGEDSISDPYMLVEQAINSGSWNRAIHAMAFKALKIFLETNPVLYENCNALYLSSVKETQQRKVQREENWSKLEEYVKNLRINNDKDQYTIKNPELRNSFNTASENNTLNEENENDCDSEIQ

Assay [1] concerns the target T1, Recombinant His7-V5-tagged Sgo1 (shugoshin), wild type, unSUMOylated (S. cerevisiae (budding yeast)) (UniProt Q08490).
T1 sequence: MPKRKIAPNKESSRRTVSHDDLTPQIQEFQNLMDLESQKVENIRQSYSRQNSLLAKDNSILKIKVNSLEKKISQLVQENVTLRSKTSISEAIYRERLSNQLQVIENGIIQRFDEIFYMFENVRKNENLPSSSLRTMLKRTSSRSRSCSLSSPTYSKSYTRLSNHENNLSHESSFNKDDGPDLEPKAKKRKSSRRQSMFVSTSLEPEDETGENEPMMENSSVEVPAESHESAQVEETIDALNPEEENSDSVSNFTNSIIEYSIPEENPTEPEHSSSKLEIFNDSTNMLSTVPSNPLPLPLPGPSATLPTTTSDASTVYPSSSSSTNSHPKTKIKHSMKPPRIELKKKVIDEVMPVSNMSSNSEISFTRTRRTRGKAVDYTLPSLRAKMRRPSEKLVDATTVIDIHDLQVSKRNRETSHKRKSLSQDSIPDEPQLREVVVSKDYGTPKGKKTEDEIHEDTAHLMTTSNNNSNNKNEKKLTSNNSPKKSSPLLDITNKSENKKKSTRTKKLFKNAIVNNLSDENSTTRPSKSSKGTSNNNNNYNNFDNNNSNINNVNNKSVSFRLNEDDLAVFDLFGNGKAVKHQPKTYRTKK
The assay is described as follows: pull-down.

Assay [2] has as its target Rts1-9Myc (regulatory subunit of PP2A-Rts1) (S. cerevisiae (budding yeast)) (UniProt P38903). Kind of assay: pull-down.

These are yes or no findings as the source states them, for the method shown. Binding seen in cells or lysates may run through a third protein. Some binding calls cover weakened binding; strength is not graded here. Tags and fused reporters may be left off the sequences shown.

Turning to “Rts1-9Myc (regulatory subunit of PP2A-Rts1) (from UniProt P38903 1-757)”, the binding result in assay [1] was “binds”.

B1: Recombinant His7-V5-tagged Sgo1 (shugoshin), wild type, unSUMOylated (protein, UniProt Q08490 1-590)
chain: MPKRKIAPNKESSRRTVSHDDLTPQIQEFQNLMDLESQKVENIRQSYSRQNSLLAKDNSILKIKVNSLEKKISQLVQENVTLRSKTSISEAIYRERLSNQLQVIENGIIQRFDEIFYMFENVRKNENLPSSSLRTMLKRTSSRSRSCSLSSPTYSKSYTRLSNHENNLSHESSFNKDDGPDLEPKAKKRKSSRRQSMFVSTSLEPEDETGENEPMMENSSVEVPAESHESAQVEETIDALNPEEENSDSVSNFTNSIIEYSIPEENPTEPEHSSSKLEIFNDSTNMLSTVPSNPLPLPLPGPSATLPTTTSDASTVYPSSSSSTNSHPKTKIKHSMKPPRIELKKKVIDEVMPVSNMSSNSEISFTRTRRTRGKAVDYTLPSLRAKMRRPSEKLVDATTVIDIHDLQVSKRNRETSHKRKSLSQDSIPDEPQLREVVVSKDYGTPKGKKTEDEIHEDTAHLMTTSNNNSNNKNEKKLTSNNSPKKSSPLLDITNKSENKKKSTRTKKLFKNAIVNNLSDENSTTRPSKSSKGTSNNNNNYNNFDNNNSNINNVNNKSVSFRLNEDDLAVFDLFGNGKAVKHQPKTYRTKK
For the molecule B1, the binding result in assay [2] is “binds”.
